Source: patent publication US20060100202A1, “Novel compounds” (priority 2001, published 2006)
Some of these results come from one statement about several compounds together.

Protein sequences, listed by entry. Tags and fused reporters are not part of them.
UniProt Q8NER1, whole entry: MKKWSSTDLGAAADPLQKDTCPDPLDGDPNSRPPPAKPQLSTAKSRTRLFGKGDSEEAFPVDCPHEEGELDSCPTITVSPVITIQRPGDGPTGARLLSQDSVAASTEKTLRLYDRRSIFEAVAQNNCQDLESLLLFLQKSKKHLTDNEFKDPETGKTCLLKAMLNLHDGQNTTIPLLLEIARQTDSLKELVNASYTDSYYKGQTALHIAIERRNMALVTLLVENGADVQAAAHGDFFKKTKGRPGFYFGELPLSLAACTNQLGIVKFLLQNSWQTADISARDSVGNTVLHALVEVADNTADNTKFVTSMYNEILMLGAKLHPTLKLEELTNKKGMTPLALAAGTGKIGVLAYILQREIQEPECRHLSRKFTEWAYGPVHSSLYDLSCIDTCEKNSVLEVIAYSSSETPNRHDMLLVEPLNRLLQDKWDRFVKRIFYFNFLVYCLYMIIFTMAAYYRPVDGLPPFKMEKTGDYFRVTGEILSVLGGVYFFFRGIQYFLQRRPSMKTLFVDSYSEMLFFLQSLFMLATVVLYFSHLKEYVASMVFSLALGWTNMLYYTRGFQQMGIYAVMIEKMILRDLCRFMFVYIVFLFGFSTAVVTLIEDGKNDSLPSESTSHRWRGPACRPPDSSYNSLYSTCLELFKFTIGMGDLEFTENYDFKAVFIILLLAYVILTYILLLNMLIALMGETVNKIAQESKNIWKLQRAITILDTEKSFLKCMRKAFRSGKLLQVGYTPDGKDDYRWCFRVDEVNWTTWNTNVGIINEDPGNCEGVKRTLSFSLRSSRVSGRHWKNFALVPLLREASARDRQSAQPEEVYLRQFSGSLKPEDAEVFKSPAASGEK

The compounds below were run against T1, human VR1 (Homo sapiens, UniProt Q8NER1) (assay: FLIPR based calcium assay, antagonism of capsaicin response). Conditions: astrocytoma 1321 N1 cells stably expressing human VR1; 30 min pre-incubation, then capsaicin; pKb generated from IC50 using the Cheng-Prusoff equation.
T1 construct: expressed in transfected cells
Assay type: cell-based
`O=C(NCCN1CCOc2cc(F)ccc21)Nc1ccccc1Br` [Example 1, N-(2-Bromophenyl)-N′-[2-(7-fluoro-2,3-dihydrobenzo[1,4]oxazin-4-yl)ethyl]urea] was tested, and the pKb was greater than 7.0. `O=C(NCCN1CCc2ccccc21)Nc1ccc(F)c(F)c1` [Example 3, N-(3,4-Difluorophenyl)-N′-[2-(2,3-dihydroindol-1-yl)ethyl]urea] showed a pKb greater than 7.0. `Cc1cccc2c1CCN2CCNC(=O)Nc1ccc(F)cc1` [Example 10, N-(4-Fluorophenyl)-N′-[2-(4-methyl-2,3-dihydroindol-1-yl)ethyl]urea] gave a pKb greater than 7.0. `Cc1cccc2c1CCN2CCNC(=O)Nc1ccccc1Cl` [Example 11, N-(2-Chlorophenyl)-N′-[2-(4-methyl-2,3-dihydroindol-1-yl)ethyl]urea] gave a pKb greater than 7.0. For `Cc1cccc2c1CCN2CCNC(=O)Nc1ccc(F)c(F)c1` [Example 12, N-(3,4-Difluorophenyl)-N′-[2-(4-methyl-2,3-dihydroindol-1-yl)ethyl]urea], the pKb was greater than 7.0. Compound `Cc1cccc2c1CCN2CCNC(=O)Nc1cccc(Cl)c1C` [Example 14, N-(2-Methyl-3-chlorophenyl)-N′-[2-(4-methyl-2,3-dihydroindol-1-yl)ethyl]urea] has a pKb greater than 7.0. Work on `Cc1cccc2c1CCN2CCNC(=O)Nc1cccc(Cl)c1Cl` [Example 15, N-(2,3-Dichlorophenyl)-N′-[2-(4-methyl-2,3-dihydroindol-1-yl)ethyl]urea] yielded a pKb greater than 7.0. Compound `Cc1cccc2c1CCN2CCNC(=O)Nc1cc(Cl)ccc1Cl` [Example 16, N-(2,5-Dichlorophenyl)-N′-[2-(4-methyl-2,3-dihydroindol-1-yl)ethyl]urea] has a pKb greater than 7.0. `Cc1cccc2c1CCN2CCNC(=O)Nc1ccccc1Br` [Example 17, N-(2-Bromophenyl)-N′-[2-(4-methyl-2,3-dihydroindol-1-yl)ethyl]urea] showed a pKb greater than 7.0. With `Cc1cccc2c1CCN2CCNC(=O)Nc1ccccc1I` [Example 19, N-(2-Iodophenyl)-N′-[2-(4-methyl-2,3-dihydroindol-1-yl)ethyl]urea] the pKb was greater than 7.0. Work on `Cc1ccc2c(c1)CCN2CCNC(=O)Nc1cc(Cl)ccc1Cl` [Example 20, N-(2,5-Dichlorophenyl)-N′-[2-(5-methyl-2,3-dihydroindol-1-yl)ethyl]urea] yielded a pKb greater than 7.0. Compound `Cc1ccc2c(c1)CCN2CCNC(=O)Nc1ccccc1Br` [Example 21, N-(2-Bromophenyl)-N′-[2-(5-methyl-2,3-dihydroindol-1-yl)ethyl]urea] has a pKb greater than 7.0. `Cc1ccc2c(c1)CCN2CCNC(=O)Nc1ccc(F)cc1` [Example 22, N-(4-Fluorophenyl)-N′-[2-(5-methyl-2,3-dihydroindol-1-yl)ethyl]urea] gave a pKb greater than 7.0. For `O=C(NCCN1CCc2c(F)cccc21)Nc1ccccc1` [Example 23, N-Phenyl-N′-[2-(4-fluoro-2,3-dihydroindol-1-yl)ethyl]urea], the pKb was greater than 7.0. `O=C(NCCN1CCc2c(F)cccc21)Nc1ccc(F)cc1` [Example 24, N-(4-Fluorophenyl)-N′-[2-(4-fluoro-2,3-dihydroindol-1-yl)ethyl]urea] was tested, and the pKb was greater than 7.0. `O=C(NCCN1CCc2c(F)cccc21)Nc1ccccc1Cl` [Example 25, N-(2-Chlorophenyl)-N′-[2-(4-fluoro-2,3-dihydroindol-1-yl)ethyl]urea] showed a pKb greater than 7.0. With `CC(=O)c1cccc(NC(=O)NCCN2CCc3c(F)cccc32)c1` [Example 27, N-(3-Acetylphenyl)-N′-[2-(4-fluoro-2,3-dihydroindol-1-yl)ethyl]urea] the pKb was greater than 7.0. Compound `Cc1c(Cl)cccc1NC(=O)NCCN1CCc2c(F)cccc21` [Example 28, N-(2-Methyl-3-chlorophenyl)-N′-[2-(4-fluoro-2,3-dihydroindol-1-yl)ethyl]urea] has a pKb greater than 7.0. For `O=C(NCCN1CCc2c(F)cccc21)Nc1cccc2ccccc12` [Example 29, N-(1-Naphthyl)-N′-[2-(4-fluoro-2,3-dihydroindol-1-yl)ethyl]urea], the pKb was greater than 7.0. In the case of `O=C(NCCN1CCc2c(F)cccc21)Nc1cccc(Cl)c1Cl` [Example 30, N-(2,3-Dichlorophenyl)-N′-[2-(4-fluoro-2,3-dihydroindol-1-yl)ethyl]urea], the pKb is reported as greater than 7.0. Compound `O=C(NCCN1CCc2c(F)cccc21)Nc1cc(Cl)ccc1Cl` [Example 31, N-(2,5-Dichlorophenyl)-N′-[2-(4-fluoro-2,3-dihydroindol-1-yl)ethyl]urea] has a pKb greater than 7.0. Work on `O=C(NCCN1CCc2c(F)cccc21)Nc1ccccc1Br` [Example 32, N-(2-Bromophenyl)-N′-[2-(4-fluoro-2,3-dihydroindol-1-yl)ethyl]urea] yielded a pKb greater than 7.0. Compound `O=C(NCCN1CCc2c(F)cccc21)Nc1ccccc1OC(F)(F)F` [Example 33, N-(2-(Trifluoromethoxy)phenyl)-N′-[2-(4-fluoro-2,3-dihydroindol-1-yl)ethyl]urea] has a pKb greater than 7.0. Compound `O=C(NCCN1CCc2cc(F)ccc21)Nc1ccc(F)c(F)c1` [Example 37, N-(3,4-Difluorophenyl)-N′-[2-(5-fluoro-2,3-dihydroindol-1-yl)ethyl]urea] has a pKb greater than 7.0. Compound `Cc1c(Cl)cccc1NC(=O)NCCN1CCc2cc(F)ccc21` [Example 39, N-(2-Methyl-3-chlorophenyl)-N′-[2-(5-fluoro-2,3-dihydroindol-1-yl)ethyl]urea] has a pKb greater than 7.0. Work on `O=C(NCCN1CCc2cc(F)ccc21)Nc1cccc2ccccc12` [Example 40, N-(1-Naphthyl)-N′-[2-(5-fluoro-2,3-dihydroindol-1-yl)ethyl]urea] yielded a pKb greater than 7.0. `O=C(NCCN1CCc2cc(F)ccc21)Nc1ccccc1Br` [Example 42, N-(2-Bromophenyl)-N′-[2-(5-fluoro-2,3-dihydroindol-1-yl)ethyl]urea] showed a pKb greater than 7.0. With `O=C(NCCN1CCc2cc(F)ccc21)Nc1ccccc1OC(F)(F)F` [Example 43, N-(2-(Trifluoromethoxy)phenyl)-N′-[2-(5-fluoro-2,3-dihydroindol-1-yl)ethyl]urea] the pKb was greater than 7.0. Compound `O=C(NCCN1CCc2cc(F)ccc21)Nc1ccccc1I` [Example 44, N-(2-Iodophenyl)-N′-[2-(5-fluoro-2,3-dihydroindol-1-yl)ethyl]urea] has a pKb greater than 7.0. `Cc1ccc2c(c1)CCCN2CCNC(=O)Nc1ccccc1Br` [Example 45, N-(2-Bromophenyl)-N′-[2-(6-methyl-3,4-dihydro-2H-quinolin-1-yl)ethyl]urea] was tested, and the pKb was greater than 7.0. With `Cc1ccc2c(c1)CCCN2CCNC(=O)Nc1ccc(F)cc1` [Example 46, N-(4-Fluorophenyl)-N′-[2-(6-methyl-3,4-dihydro-2H-quinolin-1-yl)ethyl]urea] the pKb was greater than 7.0. Compound `Cc1ccc2c(c1)CCCN2CCNC(=O)Nc1cccc(Cl)c1C` [Example 47, N-(2-Methyl-3-chlorophenyl)-N′-[2-(6-methyl-3,4-dihydro-2H-quinolin-1-yl)ethyl]urea] has a pKb greater than 7.0. `Cc1ccc2c(c1)CCCN2CCNC(=O)Nc1cccc(Cl)c1Cl` [Example 49, N-(2,3-Dichlorophenyl)-N′-[2-(6-methyl-3,4-dihydro-2H-quinolin-1-yl)ethyl]urea] was tested, and the pKb was greater than 7.0. In the case of `Cc1ccc2c(c1)CCCN2CCNC(=O)Nc1cc(Cl)ccc1Cl` [Example 50, N-(2,5-Dichlorophenyl)-N′-[2-(6-methyl-3,4-dihydro-2H-quinolin-1-yl)ethyl]urea], the pKb is reported as greater than 7.0. Compound `Cc1ccc2c(c1)OCCN2CCNC(=O)Nc1ccccc1Br` [Example 52, N-(2-Bromophenyl)-N′-[2-(7-methyl-2,3-dihydrobenzo[1,4]oxazin-4-yl)ethyl]urea] has a pKb greater than 7.0. Work on `CC1(C)CN(CCNC(=O)Nc2ccccc2Br)c2ccc(F)cc21` [Example 54, N-(2-Bromophenyl)-N′-[2-(5-fluoro-3,3-dimethyl-2,3-dihydroindol-1-yl)ethyl]urea] yielded a pKb greater than 7.0. `Cc1cc2c(NC(=O)NCCN3CCOc4cc(F)ccc43)cccc2nn1` [Example 56, N-(3-Methylcinnolin-5-yl)-N′-[2-(7-fluoro-2,3-dihydrobenzo[1,4]oxazin-4-yl)ethyl]urea] showed a pKb greater than 7.0. In the case of `Cc1nccc2c(NC(=O)NCCN3CCOc4cc(F)ccc43)cccc12` [Example 57, N-(1-Methylisoquinolin-5-yl)-N′-[2-(7-fluoro-2,3-dihydrobenzo[1,4]oxazin-4-yl)ethyl]urea], the pKb is reported as greater than 7.0. In the case of `Cc1cc2c(NC(=O)NCCN3CCOc4cc(F)ccc43)cccc2cn1` [Example 58, N-(3-Methylisoquinolin-5-yl)-N′-[2-(7-fluoro-2,3-dihydrobenzo[1,4]oxazin-4-yl)ethyl]urea], the pKb is reported as greater than 7.0. Compound “N-(2,5-Dichlorophenylphenyl)-N′-[2-(5-fluoro-2,3-dihydroindol-1-yl)ethyl]urea [Example 41]” has a pKb greater than 7.0.
